Our source for the binding values is paper PMC10847507.

By UniProt entry, the sequences of proteins in these tests, tags left out. Residues count along the entry.
UniProt P35918, residues 20-1345: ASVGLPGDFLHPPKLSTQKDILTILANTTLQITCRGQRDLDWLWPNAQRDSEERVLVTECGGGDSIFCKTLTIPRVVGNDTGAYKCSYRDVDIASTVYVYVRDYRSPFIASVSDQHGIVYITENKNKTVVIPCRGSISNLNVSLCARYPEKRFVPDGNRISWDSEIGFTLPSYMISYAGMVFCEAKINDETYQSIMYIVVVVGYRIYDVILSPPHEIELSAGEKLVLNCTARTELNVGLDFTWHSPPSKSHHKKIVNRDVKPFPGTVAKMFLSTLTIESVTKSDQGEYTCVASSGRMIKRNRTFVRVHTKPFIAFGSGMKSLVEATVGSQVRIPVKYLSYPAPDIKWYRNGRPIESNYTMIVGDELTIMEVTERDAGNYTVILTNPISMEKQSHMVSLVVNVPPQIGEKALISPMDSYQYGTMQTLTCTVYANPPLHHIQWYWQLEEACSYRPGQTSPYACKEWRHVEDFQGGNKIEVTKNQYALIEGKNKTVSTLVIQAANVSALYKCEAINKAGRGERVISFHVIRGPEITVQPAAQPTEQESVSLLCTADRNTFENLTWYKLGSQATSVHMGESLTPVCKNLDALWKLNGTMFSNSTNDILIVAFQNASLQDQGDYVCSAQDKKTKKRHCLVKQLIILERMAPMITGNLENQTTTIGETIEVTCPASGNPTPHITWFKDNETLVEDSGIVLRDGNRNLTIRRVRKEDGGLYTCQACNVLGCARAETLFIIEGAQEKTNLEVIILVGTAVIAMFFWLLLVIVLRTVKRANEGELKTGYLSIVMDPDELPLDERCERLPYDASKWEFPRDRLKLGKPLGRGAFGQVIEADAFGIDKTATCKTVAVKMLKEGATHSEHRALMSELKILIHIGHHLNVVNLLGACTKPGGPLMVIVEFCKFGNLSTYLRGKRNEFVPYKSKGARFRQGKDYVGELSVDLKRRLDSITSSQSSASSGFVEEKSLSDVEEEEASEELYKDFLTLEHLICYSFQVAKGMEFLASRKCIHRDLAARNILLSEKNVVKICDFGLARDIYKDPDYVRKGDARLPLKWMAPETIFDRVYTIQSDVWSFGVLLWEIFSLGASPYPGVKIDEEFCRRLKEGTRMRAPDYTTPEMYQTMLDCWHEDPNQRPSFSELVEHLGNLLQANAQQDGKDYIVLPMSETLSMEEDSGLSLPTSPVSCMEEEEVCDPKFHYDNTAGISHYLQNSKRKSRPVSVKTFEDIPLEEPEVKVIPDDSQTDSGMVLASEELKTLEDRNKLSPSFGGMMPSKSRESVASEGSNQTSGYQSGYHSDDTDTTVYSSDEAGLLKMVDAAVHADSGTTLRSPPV
UniProt P35968, residues 20-1356: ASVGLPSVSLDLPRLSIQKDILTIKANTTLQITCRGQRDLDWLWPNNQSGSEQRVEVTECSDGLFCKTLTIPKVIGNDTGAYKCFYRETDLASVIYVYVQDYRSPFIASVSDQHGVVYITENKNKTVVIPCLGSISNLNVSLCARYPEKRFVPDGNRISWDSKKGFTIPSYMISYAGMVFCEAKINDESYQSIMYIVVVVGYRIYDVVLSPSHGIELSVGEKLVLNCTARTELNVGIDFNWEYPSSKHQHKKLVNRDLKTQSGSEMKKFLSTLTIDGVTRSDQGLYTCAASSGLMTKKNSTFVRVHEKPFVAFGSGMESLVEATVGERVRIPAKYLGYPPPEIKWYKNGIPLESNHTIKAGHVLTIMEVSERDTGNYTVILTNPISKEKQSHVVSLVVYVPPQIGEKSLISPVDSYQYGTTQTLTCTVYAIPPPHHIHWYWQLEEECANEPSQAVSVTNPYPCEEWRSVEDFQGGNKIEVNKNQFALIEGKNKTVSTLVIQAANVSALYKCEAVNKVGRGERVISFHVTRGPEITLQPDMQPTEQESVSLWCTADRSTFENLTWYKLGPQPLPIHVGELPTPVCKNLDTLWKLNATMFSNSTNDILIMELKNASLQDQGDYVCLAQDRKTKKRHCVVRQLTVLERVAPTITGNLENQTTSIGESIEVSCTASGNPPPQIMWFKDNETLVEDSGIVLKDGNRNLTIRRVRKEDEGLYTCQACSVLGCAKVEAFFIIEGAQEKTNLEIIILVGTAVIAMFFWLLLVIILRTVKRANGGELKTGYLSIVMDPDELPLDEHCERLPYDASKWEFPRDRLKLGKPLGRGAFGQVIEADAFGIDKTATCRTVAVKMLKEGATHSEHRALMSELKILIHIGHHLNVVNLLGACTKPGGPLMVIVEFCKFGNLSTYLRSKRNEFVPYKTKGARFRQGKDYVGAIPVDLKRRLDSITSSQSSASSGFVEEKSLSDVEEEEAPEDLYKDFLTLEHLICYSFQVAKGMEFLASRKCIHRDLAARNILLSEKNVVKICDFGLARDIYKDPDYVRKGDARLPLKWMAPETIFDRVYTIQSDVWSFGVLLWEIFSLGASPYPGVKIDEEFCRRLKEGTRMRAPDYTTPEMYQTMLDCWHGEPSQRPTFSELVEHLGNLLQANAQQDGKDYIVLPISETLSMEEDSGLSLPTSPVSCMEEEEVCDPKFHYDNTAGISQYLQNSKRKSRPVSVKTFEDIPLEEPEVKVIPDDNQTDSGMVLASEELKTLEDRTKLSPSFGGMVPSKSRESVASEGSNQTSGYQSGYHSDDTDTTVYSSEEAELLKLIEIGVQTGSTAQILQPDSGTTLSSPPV

No constants are given. Whether binding was seen depends on the method and setting. In cells and extracts the contact can be indirect. Some binding calls cover weakened binding; strength is not graded here.

For assay [1], the target named is VEGFR2 (mouse (endogenous in M6)) (UniProt P35918). In words: proximity ligation; Duolink PLA on cells fixed in 4% formaldehyde and permeabilised with 0.1% Triton X-100; Control, ID4-KO and ID4-KO cells treated with recombinant VEGFA (20 ng/mL) for 24 h; mean fluorescence intensity of 40 cells per condition.
In assay [2] the target is VEGFR2 (human (endogenous in MDA-MB-468)) (UniProt P35968). The assay is described as above.

B1: integrin β3 (receptor, UniProt O54890 26-787)
chain: ESNICTTRGVNSCQQCLAVSPVCAWCSDETLSQGSPRCNLKENLLKDNCAPESIEFPVSEAQILEARPLSSKGSGSSAQITQVSPQRIALRLRPDDSKIFSLQVRQVEDYPVDIYYLMDLSFSMKDDLSSIQTLGTKLASQMRKLTSNLRIGFGAFVDKPVSPYMYISPPQAIKNPCYNMKNACLPMFGYKHVLTLTDQVSRFNEEVKKQSVSRNRDAPEGGFDAIMQATVCDEKIGWRNDASHLLVFTTDAKTHIALDGRLAGIVLPNDGHCHIGTDNHYSASTTMDYPSLGLMTEKLSQKNINLIFAVTENVVSLYQNYSELIPGTTVGVLSDDSSNVLQLIVDAYGKIRSKVELEVRDLPEELSLSFNATCLNNEVIPGLKSCVGLKIGDTVSFSIEAKVRGCPQEKEQSFTIKPVGFKDSLTVQVTFDCDCACQAFAQPSSPRCNNGNGTFECGVCRCDQGWLGSMCECSEEDYRPSQQEECSPKEGQPICSQRGECLCGQCVCHSSDFGKITGKYCECDDFSCVRYKGEMCSGHGQCNCGDCVCDSDWTGYYCNCTTRTDTCMSTNGLLCSGRGNCECGSCVCVQPGSYGDTCEKCPTCPDACSFKKECVECKKFNRGTLHEENTCSRYCRDDIEQVKELTDTGKNAVNCTYKNEDDCVVRFQYYEDTSGRAVLYVVEEPECPKGPDILVVLLSVMGAILLIGLATLLIWKLLITIHDRKEFAKFEEERARAKWDTANNPLYKEATSTFTNITYRGT
On to B1, for which the binding entry in assay [1] and in assay [2] was “binds” throughout.
